Crude mass and crude yield data for 1 sequence are collected here from US10344061B2 (CAREGEN CO., LTD., priority 2016, dated 2019).

End groups of sequences in plain letters are not given here.

This data set in a line: general procedure: peptide synthesis; chlorotrityl chloride resin. The settings on record: whole synthesis.

ACTSSQLRSC came in with a crude mass of 0.73 g. Under “scale of the general procedure 700 mg resin”, this sequence returned a crude yield of 87.1%.
